PubChem BioAssay AID504808 – Drosophila RNAi Screening Center | 2011
Purpose: 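Chromatin factors that keep E2F targets switched off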 (primary screen). System: Drosophila S2 cells. Knock-down reagent: long dsRNA against Drosophila genes. Measured: 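Dual luciferase plate measurements; E2F-specific signal taken as firefly over Renilla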. Scale: E2F firefly: higher = more E2F reporter activity; Renilla normaliser: higher = more normaliser reporter signal. Active means: 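Called active if the normalised E2F reporter went up by over 50%; the cutoff is arbitrary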.
The deposit covers about 21,000 reagents; below is an unselected part of those with a known target gene and a result. In the full data, 18 (0.084%) got an active call. 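Raw counts without plate normalisation, one of two replicates; the ratio scores behind the calls were not deposited.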 A number with no mark means an inactive call. Reagents against one gene are numbered here. A plus sign joins genes that one reagent is predicted to hit. No sequences are given here. The record does not give: the amount of reagent, the time to read-out.

| Target gene | dsRNA no. | E2F firefly, rep 1 | Renilla normaliser, rep 1 |
| --- | --- | --- | --- |
| inaF-A (GeneID 5740676) | 1 | 56652 | 4431 |
| Ccs (GeneID 46035) | 1 | 1.49e5 | 5427 |
| CG3045 (GeneID 37531) | 1 | 79466 | 3673 |
| Dh44 (GeneID 41170) | 1 | 65925 | 3431 |
| Dh44 (GeneID 41170) | 2 | 1.47e5 | 5918 |
| Xport-A + Xport-B | 1 | 67661 | 2964 |
| CG18745 (GeneID 59141) | 1 | 1.48e5 | 7619 |
| Vps52 (GeneID 33774) | 1 | 1.51e5 | 4933 |
| CG15333 (GeneID 31720) | 1 | 66461 | 4402 |
| CG15333 (GeneID 31720) | 2 | 1.15e5 | 5115 |
| Acp76A (GeneID 40078) | 1 | 1.33e5 | 5714 |
| Cds (GeneID 43950) | 1 | 70261 | 3792 |
| CG11327 (GeneID 33940) | 1 | 1.33e5 | 5074 |
| CG9784 (GeneID 32629) | 1 | 1.44e5 | 6131 |
| GEFmeso (GeneID 37134) | 1 | 66973 | 3311 |
| GEFmeso (GeneID 37134) | 2 | 1.54e5 | 5303 |
| LysS (GeneID 38130) | 1 | 1.02e5 | 4078 |
| CG17826 (GeneID 39354) | 1 | 1.16e5 | 7221 |
| sut2 (GeneID 44269) | 1 | 2818 | 181 |
| Ugt302C1 (GeneID 53510) | 1 | 70074 | 3454 |
| Mp20 (GeneID 36468) | 1 | 95701 | 4413 |
| CG15740 (GeneID 32139) | 1 | 40414 | 3300 |
| CG14339 (GeneID 33286) | 1 | 1.64e5 | 6522 |
| CG13428 (GeneID 37317) | 1 | 1.35e5 | 4295 |
| Inx3 (GeneID 44266) | 1 | 1952 | 900 |
| CG30183 (GeneID 37749) | 1 | 1.13e5 | 4091 |
| CG30183 (GeneID 37749) | 2 | 1.17e5 | 4132 |
| t-cup (GeneID 318986) | 1 | 94708 | 6088 |
| ND-51L1 (GeneID 36998) | 1 | 1.26e5 | 4951 |
| Cpr47Ef (GeneID 36194) | 1 | 98279 | 3810 |
| SLIRP2 (GeneID 41021) | 1 | 1.28e5 | 6314 |
| CG42735 (retired record) (GeneID 10178938) | 1 | 1.33e5 | 5758 |
| CG2898 (GeneID 31966) | 1 | 65338 | 4849 |
| fl(2)d (GeneID 36527) | 1 | 96034 | 4196 |
| CG10962 (GeneID 31824) | 1 | 9063 | 772 |
| Vha36-3 (GeneID 31235) | 1 | 1.29e5 | 5826 |
| mRpS31 (GeneID 39749) | 1 | 81046 | 4370 |
| Pu (GeneID 37415) | 1 | 65325 | 3484 |
| Drip (GeneID 36236) | 1 | 94355 | 4811 |
| CG6028 (GeneID 42589) | 1 | 64446 | 3122 |
| vap (GeneID 32569) | 1 | 8409 | 764 |
| CG8319 (GeneID 41165) | 1 | 1.67e5 | 6484 |
| CG10338 (GeneID 35124) | 1 | 98218 | 3786 |
| CG4806 (GeneID 37948) | 1 | 1.02e5 | 5085 |
| lectin-24Db (GeneID 53550) | 1 | 82198 | 3578 |
| SecS (GeneID 40681) | 1 | 1.39e5 | 6974 |
| CG5013 (GeneID 41951) | 1 | 1.17e5 | 5956 |
| CG14270 (GeneID 31319) | 1 | 1.27e5 | 5516 |
| CG16865 (GeneID 34788) | 1 | 1.02e5 | 4441 |
| CG34034 (GeneID 3885584) | 1 | 87345 | 2286 |
| stumps (GeneID 41770) | 1 | 84631 | 2752 |
| stumps (GeneID 41770) | 2 | 91727 | 5448 |
| stumps (GeneID 41770) | 3 | 62413 | 3554 |
| CG9286 (GeneID 41690) | 1 | 69811 | 3584 |
| sns (GeneID 44097) | 1 | 1.10e5 | 3794 |
| sns (GeneID 44097) | 2 | 1.19e5 | 4489 |
| sns (GeneID 44097) | 3 | 55662 | 4498 |
| sns (GeneID 44097) | 4 | 1.55e5 | 4755 |
| sns (GeneID 44097) | 5 | 1.43e5 | 4777 |
| sns (GeneID 44097) | 6 | 1.26e5 | 4175 |
| TfIIEalpha (GeneID 39313) | 1 | 76043 | 3105 |
| wde (GeneID 36133) | 1 | 3298 | 45 |
| CG2186 (GeneID 32017) | 1 | 7738 | 692 |
| TwdlL (GeneID 43203) | 1 | 1835 | 1140 |
| Rpn5 (GeneID 40717) | 1 | 58364 | 3857 |
| CG1662 (GeneID 32296) | 1 | 7504 | 792 |
| AP-1mu (GeneID 41150) | 1 | 74755 | 3810 |
| Fer1HCH (GeneID 46415) | 1 | 1629 | 992 |
| CG3473 (GeneID 34849) | 1 | 1.05e5 | 4419 |
| Coa8 (GeneID 31148) | 1 | 1.16e5 | 5702 |
| Tengl1 (GeneID 318883) | 1 | 1.75e5 | 6231 |
| Tm2 (GeneID 41853) | 1 | 91895 | 5311 |
| CG11883 (GeneID 36121) | 1 | 3095 | 198 |
| fz2 (GeneID 40090) | 1 | 65297 | 2637 |
| fz2 (GeneID 40090) | 2 | 75921 | 3914 |
| fz2 (GeneID 40090) | 3 | 1.25e5 | 6294 |
| CG8841 (GeneID 36336) | 1 | 3150 | 193 |
| gsb-n (GeneID 38004) | 1 | 1.29e5 | 5150 |
| gsb-n (GeneID 38004) | 2 | 1.25e5 | 5278 |
| CG6424 (GeneID 37012) | 1 | 63206 | 3236 |
| MED19 (GeneID 39987) | 1 | 46797 | 210 |
| CG34187 (retired record) (GeneID 5740579) | 1 | 1.39e5 | 5199 |
| CG16749 (GeneID 41111) | 1 | 1.27e5 | 5729 |
| CG2162 (GeneID 38360) | 1 | 83815 | 3302 |
| CG4942 (GeneID 39044) | 1 | 80024 | 3996 |
| CG1304 (GeneID 33074) | 1 | 1.33e5 | 6755 |
| CG30485 (GeneID 246644) | 1 | 1.00e5 | 4309 |
| Drat (GeneID 35687) | 1 | 4044 | 141 |
| CG42457 (retired record) + cpo | 1 | 77299 | 2919 |
| CG42457 (retired record) + cpo | 2 | 50437 | 4176 |
| CG42457 (retired record) + cpo | 3 | 1.02e5 | 4650 |
| CG42457 (retired record) + cpo | 4 | 59467 | 3589 |
| Gld (GeneID 40875) | 1 | 1.39e5 | 5891 |
| Ser (GeneID 43275) | 1 | 1.20e5 | 7426 |
| Oga (GeneID 42518) | 1 | 65811 | 3296 |
| Mppe (GeneID 36285) | 1 | 2558 | 220 |
| Adgf-D (GeneID 41679) | 1 | 1.12e5 | 5935 |
| Seipin (GeneID 31245) | 1 | 1.24e5 | 5510 |
| grau (GeneID 45871) | 1 | 98330 | 4015 |
| zetaTry (GeneID 36216) | 1 | 90979 | 4401 |
| insv (GeneID 33441) | 1 | 1.70e5 | 5758 |
| CG34241 (GeneID 5740575) | 1 | 1.29e5 | 4845 |
| Pex2 (GeneID 38941) | 1 | 77690 | 3761 |
| CG12898 (GeneID 36096) | 1 | 1.53e5 | 4972 |
| slx1 (GeneID 40578) | 1 | 1.52e5 | 6821 |
| CG31343 (GeneID 326133) | 1 | 73905 | 3275 |
| Agps (GeneID 36669) | 1 | 92547 | 4439 |

Individual results from above:
Entry of grau (GeneID 45871) in “Renilla normaliser, rep 1”: 4015
Agps (GeneID 36669), Renilla normaliser, rep 1 → 4439
Value for Coa8 (GeneID 31148) under “E2F firefly, rep 1”: 1.16e5
Under “E2F firefly, rep 1”, MED19 (GeneID 39987) has 46797
sns (GeneID 44097) #2, Renilla normaliser, rep 1: 4489
Under “E2F firefly, rep 1”, CG4942 (GeneID 39044) reads 80024
